# Results are given in words; binding and its absence hold for the method and conditions named. In cells and extracts the contact can be indirect. Some results given as binding are weak or reduced against the parent protein; the word gives no strength.
# By UniProt entry, the sequences of proteins in these tests, tags left out. Where a name states a change or a piece, a line headed by the entry shows the natural chain unless it says otherwise.
# UniProt Q92576: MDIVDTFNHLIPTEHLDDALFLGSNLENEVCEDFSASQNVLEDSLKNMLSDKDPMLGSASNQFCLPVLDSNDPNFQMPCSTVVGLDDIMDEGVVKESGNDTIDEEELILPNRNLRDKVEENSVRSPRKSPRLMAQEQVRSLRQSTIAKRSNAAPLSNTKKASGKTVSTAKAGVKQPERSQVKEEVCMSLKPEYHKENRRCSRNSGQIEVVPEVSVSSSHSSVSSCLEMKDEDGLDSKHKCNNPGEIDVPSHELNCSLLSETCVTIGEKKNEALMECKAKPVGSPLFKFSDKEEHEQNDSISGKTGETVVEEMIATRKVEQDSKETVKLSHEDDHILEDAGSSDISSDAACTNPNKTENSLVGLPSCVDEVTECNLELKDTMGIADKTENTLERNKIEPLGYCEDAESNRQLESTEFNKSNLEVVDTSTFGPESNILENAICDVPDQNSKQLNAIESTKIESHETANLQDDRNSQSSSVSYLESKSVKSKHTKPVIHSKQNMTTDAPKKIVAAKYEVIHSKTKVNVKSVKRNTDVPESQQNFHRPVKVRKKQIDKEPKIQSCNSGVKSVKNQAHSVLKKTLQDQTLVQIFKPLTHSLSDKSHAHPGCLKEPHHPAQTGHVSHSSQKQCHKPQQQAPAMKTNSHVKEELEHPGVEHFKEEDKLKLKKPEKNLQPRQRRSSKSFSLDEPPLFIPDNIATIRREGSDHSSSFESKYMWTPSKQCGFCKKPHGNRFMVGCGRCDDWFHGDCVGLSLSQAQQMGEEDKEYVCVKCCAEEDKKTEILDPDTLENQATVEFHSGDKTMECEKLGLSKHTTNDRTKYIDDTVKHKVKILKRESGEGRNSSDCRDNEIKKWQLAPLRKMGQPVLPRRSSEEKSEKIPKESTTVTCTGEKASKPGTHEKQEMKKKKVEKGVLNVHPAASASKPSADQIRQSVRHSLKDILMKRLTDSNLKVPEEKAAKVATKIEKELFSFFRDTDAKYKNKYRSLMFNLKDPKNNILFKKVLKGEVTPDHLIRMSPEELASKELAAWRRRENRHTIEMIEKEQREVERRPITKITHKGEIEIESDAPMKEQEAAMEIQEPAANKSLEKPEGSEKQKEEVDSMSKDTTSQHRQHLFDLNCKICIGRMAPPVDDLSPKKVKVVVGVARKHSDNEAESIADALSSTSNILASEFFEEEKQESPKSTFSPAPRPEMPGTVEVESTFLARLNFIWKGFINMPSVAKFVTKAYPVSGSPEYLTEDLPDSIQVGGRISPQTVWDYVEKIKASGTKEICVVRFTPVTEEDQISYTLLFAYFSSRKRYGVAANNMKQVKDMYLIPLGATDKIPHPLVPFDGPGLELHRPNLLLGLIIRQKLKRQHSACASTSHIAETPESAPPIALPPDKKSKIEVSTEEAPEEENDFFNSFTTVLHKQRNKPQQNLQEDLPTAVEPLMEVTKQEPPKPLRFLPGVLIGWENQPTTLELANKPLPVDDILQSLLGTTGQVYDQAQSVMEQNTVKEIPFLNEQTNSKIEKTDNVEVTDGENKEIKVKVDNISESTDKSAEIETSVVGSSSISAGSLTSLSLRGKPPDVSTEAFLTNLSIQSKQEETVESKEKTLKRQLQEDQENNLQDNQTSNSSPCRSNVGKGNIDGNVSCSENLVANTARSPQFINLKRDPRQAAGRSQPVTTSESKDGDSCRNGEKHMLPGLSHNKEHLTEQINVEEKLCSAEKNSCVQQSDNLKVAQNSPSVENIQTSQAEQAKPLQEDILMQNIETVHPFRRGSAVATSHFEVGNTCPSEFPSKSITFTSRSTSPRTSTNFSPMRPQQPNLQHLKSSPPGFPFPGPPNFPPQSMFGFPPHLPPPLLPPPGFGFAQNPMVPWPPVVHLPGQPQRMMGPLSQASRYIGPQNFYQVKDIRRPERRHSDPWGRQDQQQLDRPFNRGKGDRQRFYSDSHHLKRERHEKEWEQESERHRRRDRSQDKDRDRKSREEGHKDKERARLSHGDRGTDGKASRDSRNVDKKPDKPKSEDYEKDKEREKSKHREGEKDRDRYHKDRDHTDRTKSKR
# UniProt Q9Y5B9: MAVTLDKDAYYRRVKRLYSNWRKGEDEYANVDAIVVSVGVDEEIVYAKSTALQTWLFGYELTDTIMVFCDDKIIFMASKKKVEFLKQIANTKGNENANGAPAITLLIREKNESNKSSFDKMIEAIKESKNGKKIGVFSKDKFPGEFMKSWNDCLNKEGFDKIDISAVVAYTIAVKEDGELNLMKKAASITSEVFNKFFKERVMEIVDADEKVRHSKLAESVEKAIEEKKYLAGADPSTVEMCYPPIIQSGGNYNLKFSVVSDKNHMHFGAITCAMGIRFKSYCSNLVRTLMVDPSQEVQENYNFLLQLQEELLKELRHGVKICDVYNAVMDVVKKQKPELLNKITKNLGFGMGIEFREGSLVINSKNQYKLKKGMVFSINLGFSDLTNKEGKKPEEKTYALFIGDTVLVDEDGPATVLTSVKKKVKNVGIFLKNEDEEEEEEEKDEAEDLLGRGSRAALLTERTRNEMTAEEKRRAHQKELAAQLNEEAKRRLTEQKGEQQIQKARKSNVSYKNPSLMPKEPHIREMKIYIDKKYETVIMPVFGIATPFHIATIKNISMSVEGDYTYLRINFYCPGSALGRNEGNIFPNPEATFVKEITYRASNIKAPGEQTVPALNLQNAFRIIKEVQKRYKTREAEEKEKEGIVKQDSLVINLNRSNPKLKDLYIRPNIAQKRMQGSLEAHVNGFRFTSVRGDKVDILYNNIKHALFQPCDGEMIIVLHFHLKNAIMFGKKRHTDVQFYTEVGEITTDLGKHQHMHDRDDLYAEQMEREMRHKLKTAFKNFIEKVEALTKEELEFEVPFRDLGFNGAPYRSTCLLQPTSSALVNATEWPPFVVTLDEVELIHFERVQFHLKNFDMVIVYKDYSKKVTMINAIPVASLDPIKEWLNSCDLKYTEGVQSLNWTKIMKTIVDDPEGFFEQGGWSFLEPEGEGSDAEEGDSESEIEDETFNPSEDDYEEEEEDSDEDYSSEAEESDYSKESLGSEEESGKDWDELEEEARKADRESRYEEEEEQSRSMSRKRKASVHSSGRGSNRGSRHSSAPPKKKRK
# UniProt Q08945: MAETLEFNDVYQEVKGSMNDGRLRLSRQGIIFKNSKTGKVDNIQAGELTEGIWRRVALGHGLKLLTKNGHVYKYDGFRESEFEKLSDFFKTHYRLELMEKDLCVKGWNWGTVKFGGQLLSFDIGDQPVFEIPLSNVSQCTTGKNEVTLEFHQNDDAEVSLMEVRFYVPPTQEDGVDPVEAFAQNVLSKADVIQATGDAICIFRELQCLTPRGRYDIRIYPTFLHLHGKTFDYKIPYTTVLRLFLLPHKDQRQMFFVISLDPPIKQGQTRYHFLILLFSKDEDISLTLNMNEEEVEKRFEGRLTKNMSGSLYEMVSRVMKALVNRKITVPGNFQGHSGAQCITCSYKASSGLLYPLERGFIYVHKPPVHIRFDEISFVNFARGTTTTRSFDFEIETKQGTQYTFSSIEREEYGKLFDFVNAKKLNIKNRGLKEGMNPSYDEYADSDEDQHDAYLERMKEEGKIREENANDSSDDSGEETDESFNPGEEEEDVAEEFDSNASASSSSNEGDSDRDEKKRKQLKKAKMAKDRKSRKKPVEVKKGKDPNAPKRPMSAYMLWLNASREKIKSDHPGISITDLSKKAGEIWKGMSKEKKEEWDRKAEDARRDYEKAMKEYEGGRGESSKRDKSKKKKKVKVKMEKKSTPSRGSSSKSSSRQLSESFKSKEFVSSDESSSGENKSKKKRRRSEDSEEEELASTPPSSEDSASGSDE
# Molecular target: PHF3-GFP (endogenous PHF3 tagged with GFP) (human (endogenous in HEK293T)) (UniProt Q92576)
# Test: co-IP
substance,measurement,value
FACT complex (SPT16 and SSRP1) (from UniProt Q9Y5B9;Q08945),binding,binds
